PubChem BioAssay AID1224860 (National Center for Advancing Translational Sciences (NCATS), 2016)
Inconclusive means that the source gave no clear call. Such entries were picked first, then a sample of the others. A potency beside an inconclusive call is a rough fit, not a confirmed value. Active and inactive are the calls of the source. The call rests on the fitted dose curve; in most records, active means well fitted cell-killing curve with a large enough effect; inconclusive means small, poorly fitted or top-dose-only effect; inactive means flat fitted curve, though single readings scatter.

Test: Compound cytotoxicity measured by an ATP content assay as a counter-screen for lead compounds in human iPSC derived neural progenitor cells (hNPCs)
Conditions: human iPSC-derived NPC viability, ATP luminescence; series mostly up to 46.1 µM
Experimental: National Center for Advancing Translational Sciences [NCATS] Johns Hopkins University School of Medicine Florida State University Assay Overview: Many compounds can cause cytotoxicity at high compound concentrations. […] The compound cytotoxicity may also cause side effects or toxicity in human. Thus, the compound cytotoxicity needs to be measured in each cell type and each compound incubation time - same as these in the compound screening assay. The compound cytotoxicity can be measured by cell viability assays such as the ATP content assay. We use an ATP content assay kit for cell viability measurement. It measures ATP content (level) in human iPSC derived neural progenitor cells (hNPCs) using a luminescence readout that is proportional to viable cell numbers. Decrease in the luminescence signal after the compound treatment indicates reduced cell viability and cell death caused by compound treatment.
Assay Protocol Summary: The medium for hNPCs consists of DMEM/F12, N2 supplement (ThermoFisher, Cat.# 17502048), NEAA (ThermoFisher, Cat. # 11140050), 2 ug/ml heparin, 2 uM cyclopamine, and B27 (ThermoFisher, Cat. # 17504044). The ATP content assay kit (PerkinElmer, Cat.# 6016731) was used to determine cell viability. The reagent was reconstituted and prepared as described by the manufacturer. Cells were seeded in 384- or 1536-well assay plates and cultured at 37 C with 5% CO2 for 16 to 20 hours. The typical cell seeding density in the 1536-well plate assay is 350 cells/well in 3 ul medium for hNPCs in the tissue cultured treated/PDL coated plates. Compounds were added to cells and incubated for a specific time such as 6, 24, or 72 hours before addition of the reagent mixture of the ATP content assay kit at 1:1 ratio. After incubation at room temperature for 10 minutes, the luminescence intensity in assay plates was measured using a ViewLux plate reader (PerkinElmer). […] The percentage inhibitions of the decreased cell viability by small molecules were then calculated that indicate compound cytotoxicity.

| SMILES | Potency |
| --- | --- |
| Nc1c(S(=O)(=O)O)cc(Nc2ccc(Nc3nc(Cl)nc(Nc4ccc(S(=O)(=O)O)cc4)n3)c(S(=O)(=O)O)c2)c2c1C(=O)c1ccccc1C2=O | inconclusive: 24.5 µM [cytotoxic, partial curve] |
| Cc1nc(-c2ccc(OCC(C)C)c(C#N)c2)sc1C(=O)O | inconclusive: 19.5 µM [cytotoxic, partial curve] |
| O[C@@H](COc1cccc2ncccc12)CN1CCN(C2c3ccccc3[C@@H]3[C@H](c4ccccc42)C3(F)F)CC1 (stereo not given in full) | inactive |
| N[C@H](CSC(c1ccccc1)(c1ccccc1)c1ccccc1)C(=O)O | inactive |
| Cc1oncc1C(=O)Nc1ccc(C(F)(F)F)cc1 | inconclusive: 8.69 µM [cytotoxic, partial curve] |
| CC(=O)Oc1ccccc1C(=O)Nc1ncc([N+](=O)[O-])s1 | inconclusive: 28.2 µM [cytotoxic, partial curve] |
| C=C1C(=O)[C@@]23C(CC[C@@H]1[C@H]2O)[C@@]12CO[C@]3(O)[C@@H](O)[C@@H]1C(C)(C)CC[C@@H]2O (stereo not given in full) | inconclusive: 15.5 µM [cytotoxic, partial curve, poor fit] |
| NC(=O)c1cccc2[nH]c(-c3ccc([C@H]4CCCN4)cc3F)nc12 | active: 4.35 µM |
| NC1CCC(Nc2nc(Nc3ccc(C(=O)N4CCCCC4)cc3)c3ncn(-c4cccc(F)c4)c3n2)CC1 (stereo not given) | inconclusive: 19.5 µM [cytotoxic, single point] |
| CC=CC[C@@H](C)C(=O)[C@H]1C(=O)N[C@@H](C(C)C)C(=O)N(C)CC(=O)N(C)[C@@H](CC(C)C)C(=O)N[C@@H](C(C)C)C(=O)N(C)[C@@H](CC(C)C)C(=O)N[C@@H](C)C(=O)N[C@H](C)C(=O)N(C)[C@@H](CC(C)C)C(=O)N(C)[C@@H](CC(C)C)C(=O)N(C)[C@@H](C(C)C)C(=O)N1C | inactive |
| O=C(CS)Nc1ccccc1 | inconclusive: 30.8 µM [cytotoxic, single point] |
| O=C1C[C@@H](c2ccc(O)cc2)Oc2cc(O)cc(O)c21 | inactive |
| COc1ccc(/C=C/C(=O)Nc2ccccc2C(=O)O)cc1OC | inconclusive: 13.8 µM [cytotoxic, partial curve] |
| COc1ccc(-c2coc3cc(O)ccc3c2=O)cc1 | inconclusive: 21.8 µM [cytotoxic, partial curve] |
| COc1ccc(C=CC(=O)Nc2ccccc2C(=O)O)cc1OC | inconclusive: 19.5 µM [cytotoxic, partial curve] |
| Nc1ccc(N=Nc2ccccc2)c(N)n1 | inconclusive: 10.9 µM [cytotoxic, partial curve, poor fit] |
| CC(C)OC(=O)CCCC=CC[C@@H]1[C@H](C=C[C@@H](O)COc2cccc(C(F)(F)F)c2)[C@H](O)C[C@@H]1O | inactive |
| CCN(CC)c1ccc(C(=C2C=CC(=[N+](CC)CC)C=C2)c2cc(S(=O)(=O)O)ccc2S(=O)(=O)[O-])cc1 | inconclusive: 17.3 µM [cytotoxic, partial curve] |
| Cc1c(NC(=O)c2ccc(C(C)(C)C)cc2)cccc1-c1cn(C)c(=O)c(Nc2ccc(C(=O)N3CCOCC3)cc2)n1 | inconclusive: 13.8 µM [cytotoxic, partial curve] |
| C=CCCCCCCCCC(=O)O | inactive |

Ordered by count of non-hydrogen atoms (largest number first): part of the list above.

| SMILES | Potency |
| --- | --- |
| CC(C)OC(=O)CCCC=CC[C@@H]1[C@H](C=C[C@@H](O)COc2cccc(C(F)(F)F)c2)[C@H](O)C[C@@H]1O | inactive |
| Cc1oncc1C(=O)Nc1ccc(C(F)(F)F)cc1 | inconclusive: 8.69 µM [cytotoxic, partial curve] |
| Nc1ccc(N=Nc2ccccc2)c(N)n1 | inconclusive: 10.9 µM [cytotoxic, partial curve, poor fit] |

Following part:

| SMILES | Potency |
| --- | --- |
| CN(C)c1ccc2cc(C(=O)N[C@@H](CCCN=C(N)CCl)C(=O)NCc3ccccc3)ccc2c1 | inactive |
| N#C/C(=C\c1ccc(O)c(O)c1)C(=O)Nc1ccccc1 | inactive |
| O=c1cc(-c2ccccc2)oc2cc(O)c(O)c(O)c12 | inconclusive: 8.69 µM [cytotoxic, partial curve] |
| O=C(O)c1ccccc1Nc1cccc(C(F)(F)F)c1 | inactive |
| COc1cc2nc(N3CCN(C(=O)C4CCCO4)CC3)nc(N)c2cc1OC (stereo not given) | inactive |
| CCCSc1ccc2nc(NC(=O)OC)[nH]c2c1 | inconclusive: 10.9 µM [cytotoxic, partial curve] |
| COc1cccc2c1C(=O)c1c(O)c3c(c(O)c1C2=O)C[C@@](O)(C(=O)CO)C[C@@H]3O[C@H]1C[C@H](N)[C@H](O[C@@H]2CCCCO2)[C@H](C)O1 | inconclusive: 4.35 µM [cytotoxic, partial curve] |
| Oc1cc(O)cc(/C=C/c2ccc(O)c(O)c2)c1 | active: 7.74 µM |
| CC(C)Oc1ccc2c(=O)c(-c3ccccc3)coc2c1 | inconclusive: 10.9 µM [cytotoxic, partial curve] |
| Cc1ccc(O)c(N=Nc2ccccc2)n1 | active: 4.35 µM |
| COc1ccnc2c1CCCCC2S(=O)c1nc2ccccc2[nH]1 (stereo not given) | inactive |
| O=C(C=CC=Cc1ccc2c(c1)OCO2)N1CCCCC1 | inconclusive: 19.5 µM [cytotoxic, single point] |
| COc1cccc(-c2ccc(NC(=O)C3=C(C(=O)O)CCC3)c(F)c2)c1 | inconclusive: 17.3 µM [cytotoxic, partial curve, poor fit] |
| COCCn1c2c([n+](Cc3cnccn3)c1C)C(=O)c1ccccc1C2=O | active: 0.69 µM |
| OCc1ccc(-c2ccc(-c3ccc(CO)s3)o2)s1 | active: 10.9 µM |
| O=C1c2ccccc2C(=O)c2c(NCCc3ccc(O)cc3)ccc(NCCc3ccc(O)cc3)c21 | inconclusive: 17.3 µM [cytotoxic, partial curve, poor fit] |
| CCCCC1C(=O)N(c2ccccc2)N(c2ccc(O)cc2)C1=O (stereo not given) | inconclusive: 5.48 µM [cytotoxic, partial curve] |
| O=c1c2ccccc2nc2n1CCc1c-2[nH]c2ccccc12 | inconclusive: 15.5 µM [cytotoxic, partial curve] |
| CC[C@@]1(O)C[C@H](O[C@H]2C[C@H](N(C)C)[C@H](O[C@H]3C[C@H](O)[C@H](O[C@H]4CCC(=O)[C@H](C)O4)[C@H](C)O3)[C@H](C)O2)c2c(cc3c(c2O)C(=O)c2c(O)cccc2C3=O)[C@@H]1C(=O)OC | inconclusive: 15.5 µM [cytotoxic, partial curve] |
| CC(C)c1ccc2oc3nc(N)c(C(=O)O)cc3c(=O)c2c1 | active: 3.46 µM |
